The source of these data is PMC3827198, “Characterisation of AmphiAmR11, an Amphioxus (Branchiostoma floridae) D2-Dopamine-Like G Protein-Coupled Receptor” (PLoS ONE, 2013).

Sequences of proteins named here, by UniProt entry; tags and fusion partners are left off.
UniProt A0PF35, entry or part of it: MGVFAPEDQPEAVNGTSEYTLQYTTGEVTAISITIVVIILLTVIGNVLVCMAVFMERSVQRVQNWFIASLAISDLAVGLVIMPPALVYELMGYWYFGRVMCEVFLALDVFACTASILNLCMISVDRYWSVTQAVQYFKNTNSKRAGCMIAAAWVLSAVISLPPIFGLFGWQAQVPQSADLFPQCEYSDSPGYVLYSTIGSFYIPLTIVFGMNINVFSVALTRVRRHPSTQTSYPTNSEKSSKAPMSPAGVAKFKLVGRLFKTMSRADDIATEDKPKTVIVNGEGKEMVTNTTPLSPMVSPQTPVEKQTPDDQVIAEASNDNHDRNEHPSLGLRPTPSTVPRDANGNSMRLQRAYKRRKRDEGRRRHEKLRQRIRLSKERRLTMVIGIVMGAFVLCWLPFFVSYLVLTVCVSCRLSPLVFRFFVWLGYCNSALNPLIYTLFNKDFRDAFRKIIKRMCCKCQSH

The experiment deals with AmphiAmR11 (Branchiostoma floridae, UniProt A0PF35). The experiment is described as follows: Inhibition of forskolin-stimulated cAMP levels in AmphiAmR11-expressing CHO-K1 cells (agonist mode). It is filed as cell-based. On the technique in general: cAMP levels reflect the balance of adenylyl cyclase and phosphodiesterase activity.

As usually defined, the EC50 is the concentration giving half of the maximal effect.

Where a name gives a salt, the structure may show the parent alone. Read-outs that look alike come from different tables or passages of the source.

In turn, `CCCN1CCC[C@@H]2Cc3n[nH]cc3C[C@H]21` [quinpirole, (-)-quinpirole hydrochloride] returned an EC50 of 31.7 nM. For the molecule `CN1CCN2c3ccccc3Cc3ccccc3C2C1` (centres unmarked) [mianserin, mianserin hydrochloride], under “10 µM forskolin, 100 µM IBMX, 20 min, full concentration response curves, read-out: EC50 for decrease in forskolin-stimulated cAMP levels”, the EC50 came to 12.6 nM.
